Structures were worked out from names or drawings and are uncertain.
Columns and labels:
ROCK2 kinase = ROCK2 kinase (Homo sapiens, UniProt O75116); assay: In vitro evaluation of ROCK2 kinase activity (HTRF KinEASE-STK time-resolved fluorometric assay); format: biochemical; conditions: read-out: IC50 for ROCK2
Procedure: ROCK2 activity screening. ROCK2 activity was detected using a 96-well (Cisbio) time-resolved fluorometric assay. The assay for ROCK2 was performed in the following assay buffer: 5 mM MgCl2 (Sigma), 1 mM DTT (Sigma) and 1× kinase buffer. The kinase buffer was used for dilution. 7.5 μL of ROCK2 kinase (Invitrogen, PV3759) was added to a 96-well microplate to reach a final concentration of 0.4 ng/μL, and then 0.25 μL of test compound (DMSO content: 1% (volume fraction)) was added. The mixture was incubated at room temperature for 0.5 h. To start the reaction, the kinase buffer was used to mix ATP (Aladdin) and the substrate STK-substrate 2-biotin. 7.5 μL of the mixed solution was added to the microplate to reach final concentrations of 6.739 μM and 1 μM. The resulting mixture was incubated for 2 h at room temperature. 5 mL of detection buffer was mixed with STK antibody-Cryptate, and then an appropriate volume of the mixture was mixed with an equal volume of streptavidin-XL665. 10 μL of the resulting mixture was added to the microplate to stop the reaction. After further incubation for about 1 h, the microplate was read on a Molecular Devices SpectraMax i3x multifunctional microplate reader. The kinase buffer, the STK-substrate 2-biotin, the detection buffer, the STK antibody-Cryptate, and the streptavidin-XL665 were all from HTRF KinEASE-STK kit (Cisbio, 1000 tests, 61[…]). […]

By UniProt entry, the sequences of proteins in these tests, tags left out.
UniProt O75116, whole entry: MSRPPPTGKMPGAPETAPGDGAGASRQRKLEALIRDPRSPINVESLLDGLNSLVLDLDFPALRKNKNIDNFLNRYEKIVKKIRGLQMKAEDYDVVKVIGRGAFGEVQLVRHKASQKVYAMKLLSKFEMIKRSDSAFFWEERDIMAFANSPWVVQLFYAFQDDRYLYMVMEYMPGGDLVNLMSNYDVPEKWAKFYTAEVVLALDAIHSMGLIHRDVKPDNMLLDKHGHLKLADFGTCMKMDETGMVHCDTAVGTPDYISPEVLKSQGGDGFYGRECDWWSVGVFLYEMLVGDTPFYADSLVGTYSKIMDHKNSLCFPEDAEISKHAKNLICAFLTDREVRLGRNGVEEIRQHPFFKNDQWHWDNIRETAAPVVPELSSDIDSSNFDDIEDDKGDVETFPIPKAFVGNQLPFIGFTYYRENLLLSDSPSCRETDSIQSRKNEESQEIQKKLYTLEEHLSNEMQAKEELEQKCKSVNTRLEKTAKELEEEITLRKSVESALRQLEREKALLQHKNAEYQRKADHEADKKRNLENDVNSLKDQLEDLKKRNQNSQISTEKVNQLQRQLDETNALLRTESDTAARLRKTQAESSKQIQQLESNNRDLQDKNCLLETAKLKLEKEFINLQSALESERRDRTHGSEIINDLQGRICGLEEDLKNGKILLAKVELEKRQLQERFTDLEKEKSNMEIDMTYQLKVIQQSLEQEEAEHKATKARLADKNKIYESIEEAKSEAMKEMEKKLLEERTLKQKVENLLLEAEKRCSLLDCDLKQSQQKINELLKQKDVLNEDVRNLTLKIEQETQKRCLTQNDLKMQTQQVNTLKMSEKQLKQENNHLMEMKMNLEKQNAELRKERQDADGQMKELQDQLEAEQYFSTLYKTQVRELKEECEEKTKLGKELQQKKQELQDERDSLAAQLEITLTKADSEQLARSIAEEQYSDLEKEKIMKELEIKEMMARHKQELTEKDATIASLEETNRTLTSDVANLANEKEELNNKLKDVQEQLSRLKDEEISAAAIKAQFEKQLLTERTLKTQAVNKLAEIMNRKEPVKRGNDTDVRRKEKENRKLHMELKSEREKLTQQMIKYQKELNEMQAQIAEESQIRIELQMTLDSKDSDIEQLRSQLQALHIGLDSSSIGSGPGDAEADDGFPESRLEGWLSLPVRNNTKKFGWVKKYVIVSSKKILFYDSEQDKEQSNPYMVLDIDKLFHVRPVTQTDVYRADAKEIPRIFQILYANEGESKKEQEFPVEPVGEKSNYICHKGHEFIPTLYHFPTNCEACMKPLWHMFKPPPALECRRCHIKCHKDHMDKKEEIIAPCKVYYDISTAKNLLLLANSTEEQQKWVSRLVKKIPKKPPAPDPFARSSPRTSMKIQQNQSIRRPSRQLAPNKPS
UniProt Q13464, whole entry: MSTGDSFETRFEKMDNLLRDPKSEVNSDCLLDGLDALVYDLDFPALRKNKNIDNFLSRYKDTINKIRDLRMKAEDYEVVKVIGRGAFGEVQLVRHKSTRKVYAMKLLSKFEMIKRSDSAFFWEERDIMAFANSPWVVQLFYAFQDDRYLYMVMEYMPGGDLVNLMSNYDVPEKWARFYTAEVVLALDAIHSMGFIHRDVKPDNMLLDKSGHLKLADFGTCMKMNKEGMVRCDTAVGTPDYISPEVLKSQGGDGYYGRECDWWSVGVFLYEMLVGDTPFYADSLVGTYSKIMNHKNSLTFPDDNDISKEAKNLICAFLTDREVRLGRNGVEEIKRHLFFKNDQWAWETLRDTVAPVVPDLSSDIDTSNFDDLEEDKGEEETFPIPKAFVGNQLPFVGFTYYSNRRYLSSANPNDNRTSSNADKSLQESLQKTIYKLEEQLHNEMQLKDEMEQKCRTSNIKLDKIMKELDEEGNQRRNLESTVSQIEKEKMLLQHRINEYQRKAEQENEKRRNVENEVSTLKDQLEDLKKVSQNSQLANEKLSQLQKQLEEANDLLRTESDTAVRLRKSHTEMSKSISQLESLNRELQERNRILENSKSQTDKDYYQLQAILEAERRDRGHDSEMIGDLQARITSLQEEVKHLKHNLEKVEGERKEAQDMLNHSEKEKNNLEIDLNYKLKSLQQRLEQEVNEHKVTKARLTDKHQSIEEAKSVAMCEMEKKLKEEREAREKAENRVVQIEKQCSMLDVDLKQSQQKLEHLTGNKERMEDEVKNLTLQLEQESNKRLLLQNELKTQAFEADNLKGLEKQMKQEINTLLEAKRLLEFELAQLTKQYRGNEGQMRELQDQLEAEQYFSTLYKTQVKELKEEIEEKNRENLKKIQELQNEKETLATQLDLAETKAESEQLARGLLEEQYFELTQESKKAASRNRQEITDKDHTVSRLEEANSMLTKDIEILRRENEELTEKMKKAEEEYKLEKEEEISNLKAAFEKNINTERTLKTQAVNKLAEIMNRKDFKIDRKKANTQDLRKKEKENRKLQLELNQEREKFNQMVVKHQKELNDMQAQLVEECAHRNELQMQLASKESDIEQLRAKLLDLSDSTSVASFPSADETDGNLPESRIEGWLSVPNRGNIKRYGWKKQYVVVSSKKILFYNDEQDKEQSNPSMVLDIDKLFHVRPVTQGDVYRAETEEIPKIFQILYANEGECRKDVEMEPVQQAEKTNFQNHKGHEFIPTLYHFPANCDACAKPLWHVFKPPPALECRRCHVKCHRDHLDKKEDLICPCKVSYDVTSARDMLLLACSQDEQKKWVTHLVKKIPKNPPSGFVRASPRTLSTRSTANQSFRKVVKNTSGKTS

ROCK1 kinase = ROCK1 kinase (Homo sapiens, UniProt Q13464); assay: In vitro evaluation of ROCK1 kinase selectivity (HTRF KinEASE-STK time-resolved fluorometric assay); format: biochemical; conditions: read-out: IC50 for ROCK1
Procedure: ROCK1 activity was detected using a 96-well (Cisbio) time-resolved fluorometric assay. The assay for ROCK1 was performed in the following assay buffer: 5 mM MgCl2 (Sigma), 1 mM DTT (Sigma) and 1× kinase buffer. The kinase buffer was used for dilution. 7.5 μL of ROCK1 kinase (Invitrogen) was added to a 96-well microplate to reach a final concentration of 0.4 ng/μL, and then 0.25 μL of test compound (DMSO content: 1%) was added. The mixture was incubated at room temperature for 0.5 h. To start the reaction, the kinase buffer was also used to mix ATP (Aladdin) and the substrate STK-substrate 2-biotin. 7.5 μL of the mixed solution was added to the microplate to reach final concentrations of 3.53 μM and 1 μM. The resulting mixture was incubated for 2 h at room temperature. […] was mixed with STK antibody-Cryptate, and then an appropriate volume of the mixture was mixed with an equal volume of streptavidin-XL665. 10 μL of the resulting mixture was added to stop the reaction. After further incubation for about 1 h, the microplate was read on a Molecular Devices SpectraMax i3x multifunctional microplate reader. The kinase buffer, the STK-substrate 2-biotin, the detection buffer, the STK antibody-Cryptate, and the streptavidin-XL665 were all from HTRF KinEASE-STK kit (Cisbio, 1000 tests, 61[…]). […]

IC50 (ROCK2 kinase): 50 to 500 nM
IC50 (ROCK1 kinase): 500 to 5000 nM
SMILES: COc1cccc(CCC(=O)N2CCc3cc(-c4c[nH]nc4N)c(F)cc32)c1 [Compound T383]

From patent US20230050653A1, “ROCK INHIBITOR AND PREPARATION METHOD THEREFOR AND USE THEREOF” (WUHAN LL SCIENCE AND TECHNOLOGY DEVELOPMENT CO., LTD., priority 2019, published 2023)
